Paper PMC4674680, “An in cellulo-derived structure of PAK4 in complex with its inhibitor Inka1” (Nature Communications, 2015)
Results are given in words; binding and its absence hold for the method and conditions named. Binding seen in cells or lysates may run through a third protein. Some entries that bind do so weakly or less than the wild type. For some assays here: Sequences can lack the tags named with a protein.

Amino acid sequences for entries named in this document (tags omitted).
UniProt Q9NTI7: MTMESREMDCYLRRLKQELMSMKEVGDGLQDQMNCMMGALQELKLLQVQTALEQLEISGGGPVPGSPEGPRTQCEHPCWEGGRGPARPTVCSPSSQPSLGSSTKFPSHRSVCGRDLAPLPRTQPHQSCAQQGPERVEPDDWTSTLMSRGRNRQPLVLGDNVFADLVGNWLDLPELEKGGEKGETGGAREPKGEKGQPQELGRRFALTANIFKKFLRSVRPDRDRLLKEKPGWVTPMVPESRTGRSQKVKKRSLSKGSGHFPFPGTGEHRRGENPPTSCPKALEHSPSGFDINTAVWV

Legend:
[1] = target: T1, FLAG-tagged PAK4* (RR48/49AE) (human) (UniProt O96013); experiment: co-IP; told only in the discussion; constructs and conditions for Inka2 not told
T1 sequence: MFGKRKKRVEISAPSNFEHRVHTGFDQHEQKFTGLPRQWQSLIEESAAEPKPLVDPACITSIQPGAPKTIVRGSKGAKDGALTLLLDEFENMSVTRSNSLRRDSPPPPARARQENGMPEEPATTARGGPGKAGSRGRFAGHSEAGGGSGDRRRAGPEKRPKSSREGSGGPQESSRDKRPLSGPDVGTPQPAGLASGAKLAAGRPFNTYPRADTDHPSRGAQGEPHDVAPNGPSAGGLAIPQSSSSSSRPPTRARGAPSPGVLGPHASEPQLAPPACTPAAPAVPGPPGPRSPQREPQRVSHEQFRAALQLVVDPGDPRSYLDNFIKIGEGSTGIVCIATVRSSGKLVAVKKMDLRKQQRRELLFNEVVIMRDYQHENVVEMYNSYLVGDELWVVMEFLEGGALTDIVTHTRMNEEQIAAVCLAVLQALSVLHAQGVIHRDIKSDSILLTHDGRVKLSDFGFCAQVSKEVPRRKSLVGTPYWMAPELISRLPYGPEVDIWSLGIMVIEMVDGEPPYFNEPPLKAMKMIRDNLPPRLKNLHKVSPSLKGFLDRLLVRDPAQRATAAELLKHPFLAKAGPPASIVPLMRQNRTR

[2] = target: FLAG-tagged wild-type PAK4 (human) (UniProt O96013); experiment: as above

Inka2 (from UniProt Q9NTI7 1-297)
binding [1]: binds
binding [2]: binds
